From US11906523B2, “Signaling conjugates and methods of use” (VENTANA MEDICAL SYSTEMS, INC., priority 2012, dated 2024)
For at least one compound, name, drawing or mass did not settle the structure. Some of these results come from one statement about several compounds together.

Experiment: UV-Vis absorbance spectra of signaling conjugates and chromophores
Type: physicochemical
Conditions: UV-Vis trace of signaling conjugate, FIGS. 17-20

SMILES: CN(C)c1ccc(N=Nc2ccc(S(=O)(=O)NCCc3ccc(O)cc3)cc2)cc1 [Dabsyl signaling conjugate]
- band-width (FWHM) classification according to Table 1: (b) (FWHM (nm) 40-70)
- color (λmax) classification according to Table 1: II (orange λmax (nm) 430-490)
